Results reported in patent publication US20030181369A1 (published 2003).
No constants are given. Whether binding was seen depends on the method and setting. Binding seen in cells or lysates may run through a third protein. Some results given as binding are weak or reduced against the parent protein; the word gives no strength.

Sequences of proteins named here, by UniProt entry; tags and fusion partners are left off. A change or cut given only in a name is not applied to a line headed by its entry. Residues count along the entry.
UniProt P53712, residues 21-798: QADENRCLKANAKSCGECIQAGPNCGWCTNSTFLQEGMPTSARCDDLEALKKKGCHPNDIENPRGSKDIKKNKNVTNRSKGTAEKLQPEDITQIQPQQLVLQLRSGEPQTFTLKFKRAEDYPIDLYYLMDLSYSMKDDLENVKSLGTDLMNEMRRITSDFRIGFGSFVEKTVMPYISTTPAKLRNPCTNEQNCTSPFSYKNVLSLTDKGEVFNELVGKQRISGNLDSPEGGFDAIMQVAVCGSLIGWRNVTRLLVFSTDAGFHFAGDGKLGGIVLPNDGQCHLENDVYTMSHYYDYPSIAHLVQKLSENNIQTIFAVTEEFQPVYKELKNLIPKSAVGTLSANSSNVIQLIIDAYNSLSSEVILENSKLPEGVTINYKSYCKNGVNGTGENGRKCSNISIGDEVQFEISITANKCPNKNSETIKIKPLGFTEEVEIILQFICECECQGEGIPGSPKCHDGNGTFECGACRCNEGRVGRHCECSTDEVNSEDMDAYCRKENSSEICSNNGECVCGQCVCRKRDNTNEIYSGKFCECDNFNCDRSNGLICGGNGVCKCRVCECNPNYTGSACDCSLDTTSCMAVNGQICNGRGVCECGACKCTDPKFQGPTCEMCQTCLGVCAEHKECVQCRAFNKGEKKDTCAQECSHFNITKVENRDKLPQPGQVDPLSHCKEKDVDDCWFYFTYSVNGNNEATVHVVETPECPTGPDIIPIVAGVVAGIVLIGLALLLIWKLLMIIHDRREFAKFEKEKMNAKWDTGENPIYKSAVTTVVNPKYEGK
UniProt P27449: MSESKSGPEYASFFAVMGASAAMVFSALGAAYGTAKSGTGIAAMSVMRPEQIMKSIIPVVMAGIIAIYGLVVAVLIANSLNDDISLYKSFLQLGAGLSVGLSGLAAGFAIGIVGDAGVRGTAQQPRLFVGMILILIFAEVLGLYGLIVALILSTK

Molecular target: T1, T7-epitope tagged bovine β1 integrin (bovine, UniProt P53712 21-798)
T1 construct: mature; Expressed in HEK293 cells and detected in lysates with anti-T7 antibody; also called T7-β1 integrin; T7 tagged β1; not shown: le
Assay: co-immunoprecipitation with anti-HSV antibody from HEK293 lysates, anti-T7 Western blot

binding: binds
Substance: HSV-tagged 16K (16-kDa subunit of vacuolar H+-ATPase, full length) (from UniProt P27449 1-155)
